Results: patent US11096881B2 (priority 2016, dated 2021)

Test system: skin of six human volunteers with phototypes III
Conditions: in vivo

NCCS [Cysteamine]
Melanin values (change after treatment): significantly reduced
